Results taken from US6953560B1, “Barriers for polymer-coated implantable medical devices and methods for making the same” (Advanced Cardiovascular Systems, Inc., priority 2000, dated 2005).
For at least one compound, name, drawing or mass did not settle the structure.

Experiment: release of dexamethasone acetate from silicone polymer collars immersed in saline solution
Assay type: physicochemical

Structure (SMILES): CC(=O)OCC(=O)[C@@]1(O)[C@H](C)C[C@H]2[C@@H]3CCC4=CC(=O)C=C[C@]4(C)[C@@]3(F)[C@@H](O)C[C@@]21C [dexamethasone acetate]
- average drug released after 25 days, predicted with barrier (nucleation sites of barrier material assumed to cover 50% of available surface area of silicone polymer, after 25 days (line B of FIG. 5)): 0.009 mg
- total drug released, on average, from each polymeric collar (silicone polymer collars loaded with approximately 0.25 mg, saline solution, 37° C., after 25 days, average of twenty collars, no barrier (line A of FIG. 5)): 0.018 mg
